# Test results from PubChem BioAssay AID2551 (National Center for Advancing Translational Sciences (NCATS), 2010).
# Protein sequences, listed by entry. Tags and fused reporters are not part of them. Lines headed by an entry give the natural chain unless they say otherwise; changes in a name come on top.
# UniProt P51450: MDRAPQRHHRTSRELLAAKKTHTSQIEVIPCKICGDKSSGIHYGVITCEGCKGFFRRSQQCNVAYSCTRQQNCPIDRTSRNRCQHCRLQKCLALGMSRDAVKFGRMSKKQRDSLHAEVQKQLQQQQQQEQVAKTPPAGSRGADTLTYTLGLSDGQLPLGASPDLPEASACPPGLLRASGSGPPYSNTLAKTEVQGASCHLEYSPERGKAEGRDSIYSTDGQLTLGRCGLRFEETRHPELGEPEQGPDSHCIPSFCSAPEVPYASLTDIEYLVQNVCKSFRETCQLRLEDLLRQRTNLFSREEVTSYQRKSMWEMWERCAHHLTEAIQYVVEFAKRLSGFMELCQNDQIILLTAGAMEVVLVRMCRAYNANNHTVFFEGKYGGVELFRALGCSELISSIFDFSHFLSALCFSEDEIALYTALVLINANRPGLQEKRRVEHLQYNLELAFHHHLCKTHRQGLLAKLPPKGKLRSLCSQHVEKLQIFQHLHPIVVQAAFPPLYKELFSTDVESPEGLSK
# About 17,000 (5.5%) of roughly 310,000 compounds were called active. Inconclusive means that the source gave no clear call. Such entries were picked first, then a sample of the others. Calls follow the shape of the dose curve; as a rule, active = well fitted inhibition curve with a large enough effect; inconclusive = small, poorly fitted or top-dose-only effect, or effect the other way; inactive = no such curve, though single readings can be large or run the other way. Potencies of inconclusive entries are doubtful fits and often do not repeat.
# Molecular target: Nuclear receptor ROR-gamma (Mus musculus) (UniProt P51450)
# Assay: qHTS for inhibitors of ROR gamma transcriptional activity; also: nearly all actives have a fitted effect of over 60% in size
# Conditions: Drosophila S2 Gal4-RORgamma UAS-luciferase reporter, 20 h; activity change, negative = inhibition: at 53.6 µM (top of the series)
# Summary of the method: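 ROR gamma transcriptional activity was tracked as Gal4-UAS luciferase output in stably transfected Drosophila Schneider cells, with compound added 1 hr before 700 uM copper sulfate induction and a 20 hr ambient-temperature incubation.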
# % is scaled to controls: 0 for no effect and ±100 for the full control effect; potency is read from the fitted curve at half-maximal effect.
Compound,"activity change, negative = inhibition",Potency
OCC[C@@H]1C[C@@H](O)[C@H](O)[C@]2(CCc3ccccc3CO2)O1,inactive: 9.31%,
C=C(C(C)=O)C(O)/C=C/c1ccco1 (stereo not drawn),inactive: -18%,
CC(C)CC(C(=O)Nc1oc(-c2ccccc2)c(-c2ccccc2)c1C#N)N1C(=O)c2ccccc2C1=O (stereo not drawn),,"inconclusive: 7.94 µM [activator, partial curve]"
CN(C(=O)c1ccco1)c1nnc(-c2ccc(F)cc2)s1,,"inconclusive: 3.55 µM [activator, full curve]"
CC1CCc2nc(NC(=O)c3ccco3)sc2C1 (stereo not drawn),,active: 2.51 µM
c1ccc(-c2ccc(-c3cn4c(n3)CCC4)cc2)cc1,,"inconclusive: 11.2 µM [inhibitor, single point]"
Fc1ccccc1CNC(=S)Nc1cccc(C(F)(F)F)c1,,active: 7.08 µM
COc1cc(C(=O)NNC(=O)Cc2ccc(S(=O)(=O)N3CCOCC3)s2)cc(OC)c1OC,inactive: 9.92%,
Cn1c(C(C#N)/C(=N\S(=O)(=O)c2cccs2)c2ccccc2)nc2ccccc21 (stereo not drawn),,"inconclusive: 17.8 µM [inhibitor, partial curve, poor fit]"
CN(C)c1ccc(-c2cc(N(C)Cc3ccco3)ncn2)cc1,,"inconclusive: 10 µM [inhibitor, single point]"
COc1ccc(N2C(=O)CCC(C(=O)N3CCOCC3)C2c2ccc(F)cc2)cc1 (stereo not drawn),,"inconclusive: 6.31 µM [activator, single point]"
CCc1ccc(C2=NN(c3ccc(S(N)(=O)=O)cc3)C(c3ccc(F)cc3)C2)cc1 (stereo not drawn),,"inconclusive: 35.5 µM [inhibitor, single point]"
C=C1c2ccccc2O[C@H](C(=O)OCC)[C@@H]1CCC(C)C (tested in a mixture with another compound),,"inconclusive: 28.2 µM [activator, single point]"
O=[N+]([O-])/C=C/c1ccc2c(ccn2Cc2ccccc2)c1,,active: 12.6 µM
CC(C)c1ccc(C(=O)NN2C(=O)C3CCCCC3C2=O)cc1 (stereo not drawn),,"inconclusive: 35.5 µM [inhibitor, single point]"
COc1cc(CNCCc2ccccc2)cc(Br)c1OCC(=O)Nc1ccccc1C,,"inconclusive: 3.55 µM [inhibitor, single point]"
Cc1c(N(C)C(=O)C2CCCN2S(=O)(=O)c2ccccc2)c(=O)n(-c2ccccc2)n1C (stereo not drawn),,"inconclusive: 0.708 µM [activator, single point]"
Cn1cccc1/C=N/NC(=O)c1sc2ccccc2c1Cl,,active: 0.447 µM
Cc1c(-c2nc(N)nc(Nc3ccc(F)cc3)n2)oc2ccccc12,inactive: -26.9%,
CC(C)(C)c1ccc(C(=O)Nc2cccc3ncccc23)cc1,,"inconclusive: 12.6 µM [activator, partial curve]"
CCCCC(=O)Nc1ccccc1N1CCN(c2ccc(F)cc2)CC1,,"inconclusive: 12.6 µM [activator, partial curve, poor fit]"
COc1ccc(C(=O)N/N=C(\C)c2cccc(NC(=O)c3ccc(F)cc3)c2)c(OC)c1,,"inconclusive: 5.01 µM [activator, partial curve]"

# Retrieved one by one from above (3):
Compound,"activity change, negative = inhibition",Potency
CCCCC(=O)Nc1ccccc1N1CCN(c2ccc(F)cc2)CC1,,"inconclusive: 12.6 µM [activator, partial curve, poor fit]"
c1ccc(-c2ccc(-c3cn4c(n3)CCC4)cc2)cc1,,"inconclusive: 11.2 µM [inhibitor, single point]"
Cc1c(N(C)C(=O)C2CCCN2S(=O)(=O)c2ccccc2)c(=O)n(-c2ccccc2)n1C (stereo not drawn),,"inconclusive: 0.708 µM [activator, single point]"

# The list continues:

Compound,"activity change, negative = inhibition",Potency
COc1ccc(NC(=O)Oc2cc(C)ccc2C(C)C)cc1,inactive: 22.1%,
COc1ccc(-c2cc3ccccc3oc2=O)cc1NC(=S)NC(=O)c1ccc2c(c1)OCCO2,,"inconclusive: 6.31 µM [inhibitor, single point]"
CCC(C(=O)NCCC1=CCCCC1)n1nc(C)c2c(C)n(-c3ccccc3)nc2c1=O (stereo not drawn),,active: 4.47 µM
CCN(CC)S(=O)(=O)c1cccc(C(=O)Oc2cccc(NC(=O)c3cccs3)c2)c1,,"inconclusive: 31.6 µM [activator, single point]"
COc1cc(C2=NOC(C(=O)N3CCN(c4ccc(F)cc4)CC3)C2)cc(OC)c1OC (stereo not drawn),,"inconclusive: 11.2 µM [activator, partial curve]"
COc1cccc(N2CCN(C3OC(=O)c4ccccc43)CC2)c1 (stereo not drawn),,"inconclusive: 15.8 µM [inhibitor, single point]"
CCCCn1c(N)c(N(CC(C)C)C(=O)C2CCN(S(=O)(=O)c3ccc(F)cc3)CC2)c(=O)[nH]c1=O,inactive: -4.43%,
CCc1ccc(NC(=O)CC2C(=O)N(c3ccc(C)cc3)C(=O)N2CCc2ccncc2)cc1 (stereo not drawn),,"inconclusive: 11.2 µM [activator, single point]"
COc1cccc(-c2nnc(NC(=O)c3ccc(Cl)s3)o2)c1,,active: 0.251 µM
NNC(=S)Nc1ccc(C(F)(F)F)cc1Cl,,active: 11.2 µM
Nc1c(C(=O)NCc2ccc3c(c2)OCO3)nnn1CC(=O)Nc1ccc(Br)cc1,,"inconclusive: 22.4 µM [inhibitor, single point]"
CC1(C)CC(=O)c2cnc(N3CCc4ccccc43)nc2C1,,"inconclusive: 1.12 µM [inhibitor, partial curve]"
O=C(/C=C\c1ccccc1OC(=O)c1ccccc1F)c1cc2ccccc2o1,,"inconclusive: 1 µM [inhibitor, full curve, poor fit]"
O=C(CN1CCN(c2ccc(O)cc2)CC1)Nc1cc(S(=O)(=O)N2CCCC2)ccc1Cl,,"inconclusive: 35.5 µM [activator, single point]"
Cc1ccc(NC(=O)CNc2ccc(Cl)cc2F)cc1,,"inconclusive: 20 µM [activator, partial curve, poor fit]"
C/C(=N\NC(=O)c1ccccc1O)C1C(=O)c2ccccc2C1=O,,active: 3.55 µM
COc1cccc(NC(=O)c2nc(S(C)(=O)=O)ncc2Cl)c1,,active: 3.98 µM
CC(=O)N1CCN(S(=O)(=O)c2cccc(C(=O)Nc3ccc4c(c3)CCC4)c2)CC1,,"inconclusive: 25.1 µM [activator, single point]"
CCOC(=O)Cc1cnc(NC(=O)CSc2nc(C)cc(C)n2)s1,inactive: 17.1%,
O=C(N/N=C/C(Br)=C/c1ccccc1)c1n[nH]c2c1CCC2,,"inconclusive: 35.5 µM [inhibitor, single point]"
COc1cc(OC)c(NC(=O)CC(C)=O)cc1Cl,,"inconclusive: 35.5 µM [activator, single point]"
